In PubChem BioAssay AID504834 (National Center for Advancing Translational Sciences (NCATS), 2011):
Among all 320,000 compounds or so, about 22,000 (6.9%) were called active. The shares of active, inactive and inconclusive entries below differ from those in the screen. Calls follow the shape of the dose curve; as a rule, active = well fitted inhibition curve with a large enough effect; inconclusive = small, poorly fitted or top-dose-only effect, or another doubt; inactive = no such curve, though single readings can be large or run the other way. Potencies beside an inconclusive call are fits to weak or partial responses and may not hold up.

Assay: Primary qHTS for delayed death inhibitors of the malarial parasite plastid, 96 hour incubation
Settings: P. falciparum luciferase reporter growth; series mostly up to 28.7 µM; activity change, negative = inhibition: at the top concentration
In short: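 Two-generation exposure (96 h) targets delayed-death phenotype. Reporter parasites carrying integrated firefly luciferase, in red cells at 2% hematocrit and 0.05% parasitemia final, kept at 37 C, 5% CO2; luminescence loss indicates inhibition.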
% is scaled to controls: 0 for no effect and ±100 for the full control effect; potency is read from the fitted curve at half-maximal effect.

Row | Structure (SMILES) | Potency | activity change, negative = inhibition
1 | COc1ccc(C(=O)CC(=O)c2ccccc2O)cc1 | inconclusive: 10.4 µM [inhibitor, partial curve, poor fit] | 
2 | CCNc1nc(NCC)n2c(SCC(=O)Nc3ccc(NC(C)=O)cc3)nnc2n1 | inconclusive: 9.28 µM [inhibitor, single point] | 
3 | COC(=O)c1ccccc1NC(=O)CSc1nc(O)cc(=O)n1C1CCCC1 | inconclusive: 13.1 µM [inhibitor, single point] | 
4 | COc1ccc(-n2c(=O)c3c(C)c(C)sc3n(Cc3ccc(F)cc3)c2=O)c(OC)c1 | inconclusive: 14.7 µM [inhibitor, single point] | 
5 | CC(=O)c1c(C)c(C)c2n1CCn1c(C)ccc1-2 | inconclusive: 18.5 µM [inhibitor, single point] | 
6 | COc1cc(/C(C)=N/NC(=S)NC(C)C)cc(OC)c1OC | inconclusive: 11.7 µM [inhibitor, single point] | 
7 | Cc1c(C(=O)N2CCCCC2)oc2ccc(Br)cc12 |  | inactive: 108%
8 | O=C(C1COc2ccccc2O1)N1CCc2ccccc2C1 (stereo not given) | inconclusive: 4.65 µM [inhibitor, partial curve, poor fit] | 
9 | CCCCSc1cc(C)nc(N)n1 |  | inactive: 5.73%
10 | COc1ccc(NC2CCCN(C(=O)c3cc4ncccn4n3)C2)cc1 (stereo not given) | inconclusive: 14.7 µM [inhibitor, single point] | 
11 | CC1(C)Cc2c(sc(NC(=O)C(=O)NCCCN3CCOCC3)c2C(N)=O)CO1 | inconclusive: 16.5 µM [inhibitor, single point] | 
12 | O=C(C[n+]1cccc(NC(=O)c2ccccc2)c1)c1ccc(NC(=O)c2ccccc2)cc1 | inconclusive: 4.15 µM [inhibitor, full curve, poor fit] | 
13 | COc1cccc(NC(=O)c2ccccc2OCc2c(C)noc2C)c1 | inconclusive: 18.5 µM [inhibitor, single point] | 
14 | CCn1nc(C)c(CNC(=O)C2CCC(=O)N(Cc3cccc(F)c3)C2)c1C (stereo not given) | inconclusive: 7.38 µM [inhibitor, partial curve] | 
15 | CN1CCN(S(=O)(=O)c2cccc(C(=O)Nc3cc(C(F)(F)F)ccc3N3CCCCC3)c2)CC1 | inconclusive: 11.7 µM [inhibitor, single point] | 
16 | CCOc1ccc(C(=O)NC2CCN(S(=O)(=O)c3ccccc3)CC2)cc1 |  | inactive: -0.26%
17 | CCN(CC)S(=O)(=O)c1ccc(OC)c(NC(=O)Cn2cnc3c2c(=O)n(C)c(=O)n3C)c1 |  | inactive: 1.16%
18 | C=CCn1c(O)c(C(CC)=Nc2ccc(C(=O)O)cc2)c(=O)[nH]c1=O |  | inactive: 16.6%
19 | Cc1ccc(NC(=S)N(CCN(C)C)Cc2cccs2)cc1C |  | inactive: 14.5%
20 | Cc1nn(-c2ccccc2)c(C)c1/C=N/NC(=O)c1cc(-c2cccc3ccccc23)n[nH]1 | inconclusive: 8.28 µM [inhibitor, partial curve] | 
21 | CCc1c(C)nc2ncnn2c1N1CCCC(C(=O)NCc2cccs2)C1 (stereo not given) |  | inactive: 30.4%
22 | CNC(=S)NNC(=O)c1cn(C)nc1C | inconclusive: 18.5 µM [inhibitor, single point] | 
23 | CCC(NC(=S)NCc1ccc(F)cc1)c1ccc(C(C)C)cc1 (stereo not given) | inconclusive: 11.7 µM [inhibitor, single point] | 

Entries of single compounds as entered above:
COC(=O)c1ccccc1NC(=O)CSc1nc(O)cc(=O)n1C1CCCC1 in the list: Potency: inconclusive: 13.1 µM [inhibitor, single point]
CCOc1ccc(C(=O)NC2CCN(S(=O)(=O)c3ccccc3)CC2)cc1 in the list: activity change, negative = inhibition: inactive: -0.26%

Additional results

Row | Structure (SMILES) | Potency | activity change, negative = inhibition
24 | COc1ccc(C2(O)CCN(CC(=O)Nc3nc(-c4ccccc4)cs3)CC2)cc1 |  | inactive: 58.6%
25 | CC(C)Oc1ccc(C(=O)NC2CCS(=O)(=O)C2)cc1 (stereo not given) |  | inactive: -16.8%
26 | CC1(C)C(=O)OC(C(=O)c2ccccc2)C2(CCCCC2)C1=O (stereo not given) | inconclusive: 4.15 µM [inhibitor, full curve] | 
27 | COc1cc(NS(=O)(=O)c2ccc(C)c(C)c2)c(OC)cc1Cl | active: 6.57 µM | 
28 | COc1ccc(N2CCOCC2)c(NC(=O)COc2cccc(C)c2C)c1 |  | inactive: -8.41%
29 | COc1ccc(N(CC(=O)NN=C2CCN(C)CC2)S(=O)(=O)c2ccc(NC(C)=O)cc2)cc1 | inconclusive: 4.15 µM [inhibitor, partial curve, poor fit] | 
30 | COc1ccccc1C(=O)NC(CCSC)C(=O)NNC(=O)C(C)Oc1ccccc1F (stereo not given) | inconclusive: 18.5 µM [inhibitor, single point] | 
31 | CCOc1ccc(N=Nc2c(=O)[nH]n3c(=O)cc(C)[nH]c23)cc1 |  | inactive: -1.77%
32 | COc1ccc(NC(=O)[C@@H](NC(=O)c2ccccc2)C(C)C)cc1S(=O)(=O)N1CCCCC1 | inconclusive: 11.7 µM [inhibitor, single point] | 
33 | Cc1ccc2c(c1)C(=O)C(=O)N2CCCOc1ccccc1C | inconclusive: 18.5 µM [inhibitor, single point] | 
34 | N#CCSc1nnc(Cc2cccc3ccccc23)n1C1CCCCC1 | inconclusive: 0.928 µM [inhibitor, full curve] | 
35 | O=C(c1ccc(Cl)cc1)c1ccc(OCC(=O)N2CCOCC2)cc1 |  | inactive: 86.5%
36 | O=C(O)c1cccc(CSc2ncn[nH]2)c1 |  | inactive: 99.7%
37 | COc1cc(CNc2ccc(CNc3ncn[nH]3)cc2)cc(Cl)c1OCc1ccccc1 | inconclusive: 18.5 µM [inhibitor, single point] | 
38 | O=C(CNc1ccc2c(c1)OCO2)N/N=C\c1cn(Cc2ccccc2)c2ccccc12 | inconclusive: 16.5 µM [inhibitor, single point] | 
39 | S=C(NCCCN1CCOCC1)N(Cc1ccccc1)Cc1ccccc1 |  | inactive: 12.4%
40 | CCN1CCN(c2ccc(S(=O)(=O)N3CCOCC3)cc2NC(=O)c2ccc(F)cc2Cl)CC1 | inconclusive: 9.28 µM [inhibitor, single point] | 
41 | CC(C)N1CCC(N2CCN(CCCc3ccccc3)CC2CCO)CC1 (stereo not given) | inconclusive: 4.65 µM [inhibitor, partial curve] | 
42 | Cc1ccc(-c2nnc(N(C)C(=O)c3ccccn3)s2)cn1 | inconclusive: 11.7 µM [inhibitor, single point] | 
43 | Oc1ccccc1N=Cc1c(O)ccc2ccccc12 | active: 10.4 µM | 
44 | COc1cccc(C(C(=O)NC(C)(C)C)N(Cc2ccc(F)cc2)C(=O)CCC(=O)Nc2cc(C)on2)c1OC (stereo not given) | inconclusive: 11.7 µM [inhibitor, partial curve] | 
45 | CCn1c(N2CCN(Cc3ccc([N+](=O)[O-])cc3)CC2)nc2ccccc21 | active: 13.1 µM | 
